Our source for the binding values is publication PMC9041834.

Amino acid sequences for entries named in this document (tags omitted).
UniProt Q17551: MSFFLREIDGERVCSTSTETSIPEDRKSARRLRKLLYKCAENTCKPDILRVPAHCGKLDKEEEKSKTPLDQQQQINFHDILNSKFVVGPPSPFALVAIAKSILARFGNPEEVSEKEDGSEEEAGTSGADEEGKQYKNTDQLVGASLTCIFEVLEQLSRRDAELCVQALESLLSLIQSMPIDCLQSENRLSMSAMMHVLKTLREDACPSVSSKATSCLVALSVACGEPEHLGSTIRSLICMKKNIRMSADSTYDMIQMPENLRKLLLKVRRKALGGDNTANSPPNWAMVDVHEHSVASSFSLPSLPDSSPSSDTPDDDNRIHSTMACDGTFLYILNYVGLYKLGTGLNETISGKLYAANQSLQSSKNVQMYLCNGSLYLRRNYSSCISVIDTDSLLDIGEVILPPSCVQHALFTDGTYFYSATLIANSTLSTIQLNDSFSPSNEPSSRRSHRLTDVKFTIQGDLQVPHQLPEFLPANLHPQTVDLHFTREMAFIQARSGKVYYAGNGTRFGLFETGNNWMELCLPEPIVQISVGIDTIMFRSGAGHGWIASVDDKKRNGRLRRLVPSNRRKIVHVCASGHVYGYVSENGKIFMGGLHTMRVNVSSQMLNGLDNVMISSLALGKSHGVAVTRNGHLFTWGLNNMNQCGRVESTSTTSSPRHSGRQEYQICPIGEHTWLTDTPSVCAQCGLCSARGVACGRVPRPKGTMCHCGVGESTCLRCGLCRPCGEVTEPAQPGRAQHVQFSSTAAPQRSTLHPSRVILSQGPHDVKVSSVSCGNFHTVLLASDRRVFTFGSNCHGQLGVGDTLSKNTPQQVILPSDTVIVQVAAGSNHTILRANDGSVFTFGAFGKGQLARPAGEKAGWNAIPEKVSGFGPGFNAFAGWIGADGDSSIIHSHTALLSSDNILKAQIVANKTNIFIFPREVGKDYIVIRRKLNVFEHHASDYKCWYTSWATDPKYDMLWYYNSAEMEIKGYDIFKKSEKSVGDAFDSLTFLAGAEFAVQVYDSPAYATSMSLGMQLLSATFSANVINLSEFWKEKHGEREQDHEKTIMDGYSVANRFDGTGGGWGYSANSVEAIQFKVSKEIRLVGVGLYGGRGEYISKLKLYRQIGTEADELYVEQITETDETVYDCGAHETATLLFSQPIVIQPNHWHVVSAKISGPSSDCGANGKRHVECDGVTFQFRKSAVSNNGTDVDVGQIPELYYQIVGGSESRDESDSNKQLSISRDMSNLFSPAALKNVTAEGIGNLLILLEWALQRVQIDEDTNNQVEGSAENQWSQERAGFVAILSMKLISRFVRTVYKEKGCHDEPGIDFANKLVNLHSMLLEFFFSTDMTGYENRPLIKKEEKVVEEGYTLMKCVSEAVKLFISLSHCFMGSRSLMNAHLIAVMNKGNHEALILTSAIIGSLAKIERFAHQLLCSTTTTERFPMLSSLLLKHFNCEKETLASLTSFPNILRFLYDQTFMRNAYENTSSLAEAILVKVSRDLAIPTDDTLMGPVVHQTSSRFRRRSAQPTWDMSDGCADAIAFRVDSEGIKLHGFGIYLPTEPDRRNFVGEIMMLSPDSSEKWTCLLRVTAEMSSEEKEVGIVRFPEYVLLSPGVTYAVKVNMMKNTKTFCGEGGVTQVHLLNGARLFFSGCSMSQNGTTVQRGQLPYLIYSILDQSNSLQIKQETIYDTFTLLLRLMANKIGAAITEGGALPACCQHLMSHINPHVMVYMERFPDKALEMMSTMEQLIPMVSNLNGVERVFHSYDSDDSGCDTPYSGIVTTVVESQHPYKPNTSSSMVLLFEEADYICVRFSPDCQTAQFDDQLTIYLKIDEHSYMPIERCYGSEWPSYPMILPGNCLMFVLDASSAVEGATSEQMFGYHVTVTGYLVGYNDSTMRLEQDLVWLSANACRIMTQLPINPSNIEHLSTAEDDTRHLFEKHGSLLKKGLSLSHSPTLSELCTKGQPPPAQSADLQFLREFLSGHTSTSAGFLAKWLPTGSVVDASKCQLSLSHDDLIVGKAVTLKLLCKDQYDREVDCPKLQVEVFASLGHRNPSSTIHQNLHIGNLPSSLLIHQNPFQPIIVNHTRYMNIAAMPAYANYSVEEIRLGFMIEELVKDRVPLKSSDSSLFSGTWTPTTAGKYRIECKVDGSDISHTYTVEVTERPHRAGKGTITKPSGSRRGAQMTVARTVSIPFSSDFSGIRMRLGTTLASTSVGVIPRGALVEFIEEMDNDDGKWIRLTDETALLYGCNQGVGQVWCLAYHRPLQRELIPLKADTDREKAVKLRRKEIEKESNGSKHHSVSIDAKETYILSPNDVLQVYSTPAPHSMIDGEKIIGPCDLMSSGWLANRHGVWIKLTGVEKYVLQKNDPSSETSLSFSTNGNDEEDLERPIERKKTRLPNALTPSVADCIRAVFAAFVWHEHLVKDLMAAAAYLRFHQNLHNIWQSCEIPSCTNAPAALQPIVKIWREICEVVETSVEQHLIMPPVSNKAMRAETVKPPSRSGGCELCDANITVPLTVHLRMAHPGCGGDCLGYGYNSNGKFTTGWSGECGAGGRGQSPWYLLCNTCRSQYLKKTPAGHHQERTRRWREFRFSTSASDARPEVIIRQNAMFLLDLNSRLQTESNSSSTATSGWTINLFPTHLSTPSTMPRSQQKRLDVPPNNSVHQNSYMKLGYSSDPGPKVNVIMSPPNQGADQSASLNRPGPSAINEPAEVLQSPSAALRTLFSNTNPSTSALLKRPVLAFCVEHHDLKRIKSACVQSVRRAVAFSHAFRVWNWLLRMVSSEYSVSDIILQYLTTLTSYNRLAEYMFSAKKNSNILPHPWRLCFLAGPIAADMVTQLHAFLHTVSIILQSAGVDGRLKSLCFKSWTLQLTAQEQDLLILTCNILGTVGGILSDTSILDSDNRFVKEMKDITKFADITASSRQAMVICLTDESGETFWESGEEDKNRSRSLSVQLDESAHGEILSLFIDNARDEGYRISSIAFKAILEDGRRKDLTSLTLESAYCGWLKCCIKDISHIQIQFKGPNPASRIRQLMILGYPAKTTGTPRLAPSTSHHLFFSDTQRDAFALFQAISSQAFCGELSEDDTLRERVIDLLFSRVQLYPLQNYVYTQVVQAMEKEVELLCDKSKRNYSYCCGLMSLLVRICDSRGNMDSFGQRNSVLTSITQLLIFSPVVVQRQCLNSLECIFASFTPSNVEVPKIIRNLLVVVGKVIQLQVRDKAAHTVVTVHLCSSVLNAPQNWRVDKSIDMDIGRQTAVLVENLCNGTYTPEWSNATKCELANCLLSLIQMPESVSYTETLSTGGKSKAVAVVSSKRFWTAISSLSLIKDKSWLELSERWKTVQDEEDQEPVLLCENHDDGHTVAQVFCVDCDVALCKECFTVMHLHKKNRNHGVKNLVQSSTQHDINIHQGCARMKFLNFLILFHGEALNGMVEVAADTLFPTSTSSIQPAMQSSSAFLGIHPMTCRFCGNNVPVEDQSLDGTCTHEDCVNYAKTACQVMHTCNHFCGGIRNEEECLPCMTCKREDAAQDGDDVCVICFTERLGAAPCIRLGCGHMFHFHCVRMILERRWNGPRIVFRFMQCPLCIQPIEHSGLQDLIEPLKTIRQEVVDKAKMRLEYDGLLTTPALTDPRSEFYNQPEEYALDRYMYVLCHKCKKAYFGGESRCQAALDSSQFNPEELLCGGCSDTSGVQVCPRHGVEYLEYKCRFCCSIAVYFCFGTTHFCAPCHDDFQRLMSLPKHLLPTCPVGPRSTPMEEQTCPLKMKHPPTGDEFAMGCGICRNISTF

No constants are given. Whether binding was seen depends on the method and setting. Binding seen in cells or lysates may run through a third protein. These calls come from enrichment with a bait or labelling near it, and not all partners need be listed.

For assay [1], the target named is GS::RPM-1 LD (RPM-1 ubiquitin ligase dead substrate trap fused to the GS affinity tag) (C. elegans) (UniProt Q17551). Description: affinity purification with mass spectrometry; GS-tagged baits (GS::RPM-1, GS::RPM-1 LD, GS::GFP) from transgenic mixed-stage C. elegans; cryomilled, lysed under varying detergent conditions; whole animal lysate (80 mg total protein) on IgG coupled Dynabeads, 4 h, 4°C; LC-MS/MS; 7 independent experiments.

The target in assay [2] is GS::RPM-1 (wild-type RPM-1 fused to a protein G::Streptavidin binding peptide (GS) affinity tag) (C. elegans) (UniProt Q17551). Described as above.

B1: GLO-4 (protein, UniProt Q5DX34 1-1386)
chain: MFFKRSTNSRKTSANSSSDTSTSSESLLLPLLNNTKAGARSQKGSVHRQSGKKARRKMMENPYVCSLELDELSADDSIIDYSVFSDDSFLLILLLTSKGDVQAYLETSRDTKPRKNVVNIKTACSLNVSPVTVCIGSQAAFAIFGLADGNLLVTPIRLLIDVTWGGSSWATTTVIDLSLPTVDPCLATPTCTKCFVSNFPPCTMAVVANKAGNILLVDLHLRKCVSELKAPQSLHQIDILLDENSIELLVTGFTGAQWIIPIERSGKGFREVLTTCVPSDLTVLEPATMQFFAADSCGVVALDTTESIVEVYNTFHSLAHSSKRTFKVPPETWMVHAGDNMLFTVSNDNEIRSALHFGFMSSRLEYTLVRTSTNWRPLGIVAMPSRPHKLAGIFVVNERGLVRVEQSTALNLTKIASEFFFRLSPLQLNSKSVAQVANACRIDTAEFQSALIPNLLSTRKNRQLTNKELSQIYSIAKAINLSMSDLLKAFENESIGEQLLPEVLNTIQTNPAKHDNLMQRVVEMFVKRSLSAEGNMDKIREYDAELSNFLARHEHLHKGSVDCAKAGMWKCTQTLVRRDVHETKSIDTSTEVLLYIIKNRLQIWNEANSTDRLQIMSLVCHLDWSKLADADGARVCAILSAWQRDISLPSYHEMCLRIAITNSDRFPRPCQILSLVSSIHILSEKKISNHANLPNFLPLAGGNNCGATITEDDRLMIWGNFTNAQQRMEMPQMNAKSKRSDSVTNGAPTLPPPAPKPEQHLPRVLEYPGGRPRAIACGAEHILVLSSSGQLSAWGGNRFGQCGVGHSFRIANLHQVDGDWPAIEKIACGQFHSAFICSDGSLWTFGWGVWGQLGHGGRNNSNQLVPTRVNGLICKVTQIACGRAHTVVLTDTGRVLVCGSGSYGQMGVDDDIKKVFAFTPLPLGPLRVRDIATHYYHSICITEDNRVFEWGRNPQELKMRMFVMKKIRSAQLKNTEDPSSPSPSTNGSTPRVNLNLPAEIPREDLGLREVKHFLDGNIVSVACGLSHSALITSEGTLYTWGKGLDYQLGHGNKNERMEPHQVFEPNGAKWVNVSLGNNHTIASTDDGSVFAWGKNDFGQCGVLTKKNGNSADVTKKFFFQARDGRRFMPNVDESQFVQKPGLIPDVRVRNLNEDGNEGVDKEEIVDRLKASDVNVVQAVSKHLYSPIEGKCNGSIIEDEPRNGKIQKQNKYDGEDGPLCTTTALVHLIAGDVKRAIRMIEWLKTDSSTCEKSLMVLSSLVWEVMANHEDVQSREALSAAFRHVPMSDSMRKGKQIAQLWPAVWNDERVQSSLSIDEKIAMLDGFTSASKPVSCPTIPSSSLEVSSKIRVYAQCAHAEPAAVGSPPECSTCLDEWTEKVRHTLGTQL
For B1, the binding result in assay [1] and in assay [2] was “binds” each time.

B2: FSN-1 F-box protein (protein, UniProt Q18223 1-332)
chain: MAENDGETIVPDEQCNLTASTPMKSSGLEQVESPKERKTSMVECDDEGNPSSGTPDESPKQLTPHSIPPRRRRSPRRPEVSASRLPLKVLNQIFQYLPLKDLRSAMLTCHSWNNALSMEDSDIWQYLLGKKLPEAAVSDPFLLAELGSAKKKLRAWYFAWNTSDISRNNYIRTNGFTVHRQPVAQSTDGVRGKRGISKGVHAFDITWDGPLGTVAVVGIATKHAALHCVGYVALLGSDDQSWGWNLVDNVLMHNGAQLGVYPKMNNPPKYEVGDKIRLIIDCDTHVAYFERNSEFLGIAFNHIPPLRLYPAVCAVYGNTEVTMVYVGSPQMG
As to B2, the binding result in assay [1] and in assay [2] was “binds” in each case.

B3: UNC-51(ULK1) (enzyme, UniProt Q23023 1-856)
chain: MEQFDGFEYSKRDLLGHGAFAIVYRGRYVDRTDVPVAIKAIAKKNISKSKNLLTKEIKILKELSSLKHENLVGLLKCTETPTHVYLVMEFCNGGDLADYLQQKTTLNEDTIQHFVVQIAHALEAINKKGIVHRDLKPQNILLCNNSRTQNPHFTDIVIKLADFGFARFLNDGVMAATLCGSPMYMAPEVIMSMQYDAKADLWSIGTILFQCLTGKAPFVAQTPPQLKAYYEKTRELRPNIPEWCSPNLRDLLLRLLKRNAKDRISFEDFFNHPFLTSPLLPSPSKRILESARSPLLANRRIITPQSSLPVPKRAGSTKLDSPTPVRRIGESPRVQRRVITPGMPSPVPGAPMQESTDFTFLPPRQESSPVKQVQVHTNVSPSLTTCKPVPVPSQRLTYQKMEERLAAARKTAVPSSSSPTGSAVSAQHQHQHQQQQEPASSPVVQRIERPDQLPRRTTLQDPNAHDIERMTMPNPTFVVCGSSTKPSPNNANRVRRSTITSPADTQDMVAADQMLSNLDPTTTTTTIPKSATTANIQGIPRGARDRSVTSPPQPTIHENEPLDNAKYQQTDVNNSPTAPTEPFIIKNQTTCSTSSTSSSVVEEEEAMSLPFASGSHLAAGFKKTPAEVPMDHGALPPALDQEIVLGEEHKQILAKLRFVAELVDTLIHVAEQKDNPLASAMASRRQLLTTGTSTTNTSSPYRRAEQLVVYVRALHMLSSALLLAQTNVANRVLHPSVAVQQVLNQLNDKYHQCLVRSQELASLGLPGQDPAMAVISAERIMYRHAIELCQAAALDELFGNPQLCSQRYQTAYMMLHTLAEQVNCDQDKTVLTRYKVAVEKRLRILERQGFVAAVNT
Take B3: the binding result in assay [1] and in assay [2] was “binds” in each case.

B4: PPM-2 (enzyme, UniProt P49596 1-356)
chain: MGQTLSEPVTKKESASCANENYLVGSSCMQGWRVDMEDAHTHLLSLPDDPKCAFFAVYDGHGGSKVSQYSGINLHKKVVAQKEFSEGNMKEAIEKGFLELDQQMRVDEETKDDVSGTTAVVVLIKEGDVYCGNAGDSRAVSSVVGEARPLSFDHKPSHETEARRIIAAGGWVEFNRVNGNLALSRALGDFAFKNCDTKPAEEQIVTAFPDVITDKLTPDHEFIVLACDGIWDVMTNQEVVDFVREKLAEKRDPQSICEELLTRCLAPDCQMGGLGCDNMTVVLVGLLHGQSPDTLFTKCARPAVFTGVNNEDGDQNQIQQDISRVINNFDGEQRVNAANQEEEEDDNEPAPANFQV
For the molecule B4, the binding entry in assay [1] and in assay [2] was “binds” in each case.

B5: RAE-1 (protein, UniProt Q93454 1-373)
chain: MFGSSGFGNKSMFGGSNISTSTTTPAANTTQNDDFLVDGAPEDTIQVIKFSPTPQDKPMLACGSWDGTIRVWMFNDANTFEGKAQQNIPAPILDIAWIEDSSKIFIACADKEARLWDLASNQVAVVGTHDGPVKTCHWINGNNYQCLMTGSFDKTLRFWDMKNLPNQTQMAQIQLPERVYAADVLYPMAVVALANKHIKVYNLENGPTEVKDIESQLKFQIRCISIFKDKSNQNPAGFALGSIEGRVAVQYVDVANPKDNFTFKCHRSAELVNGFQEIYAVNDICFHPQHGTLVTIGSDGRYSMWDKDARTKLKTSEPHPMPLTCCDVHSSGAFLVYALGYDWSRGHEGNTQPGSKIVIHKCIEDMKPRPTKK
Consider B5, for which the binding result in assay [1] and in assay [2] was “binds” each time.
